Source: PubChem BioAssay AID662 (National Center for Advancing Translational Sciences (NCATS), 2007)
The list shows a part of the results. The main result of the screen is listed elsewhere. These columns were measured beside it and carry no call. The list favours compounds with an active or inconclusive main result. Words in brackets tell the shape of the fitted curve; partial curves, single points and poor fits give uncertain potencies.

Assay: Cell signaling CRE-BLA (Fsk stim)
Settings: CHO CRE-bla reporter (cAMP response element driving beta-lactamase), forskolin EC10, beta-lactamase ratio; measured here: 460 nm blue channel
How it was run: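 Cells were plated overnight at 37 °C, exposed to compound titrations plus EC10 NKH 477 for 3 h, then given CCF4 dye for 2 h at room temperature. Blue/green (460/530 nm) ratio was converted to %Activity and AC50 values calculated.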

Structure (SMILES) | AC50
CCN(CC)c1ccc(NC(=O)c2ccc(NC(=O)C3CCCO3)cc2)c(C)c1 (stereo not drawn) | 6.31 µM [falling, partial curve, poor fit]
COc1cc(C(=O)OCC(=O)c2cc(C)n(C)c2C)cc(OC)c1OC | 2 µM [rising, full curve]
O=C(NCCN1CCCC1)C1CCN(S(=O)(=O)N2CCC3(CC2)OCCO3)CC1 | 3.98 µM [falling, partial curve]
Cc1ccc2cc(COC(=O)c3ccncc3)c(=O)[nH]c2c1 | 3.98 µM [falling, partial curve]
COc1ccc(-n2c(=S)[nH]c3cc(C(=O)NCCCN4CCCC4=O)ccc3c2=O)cc1 | 0.00794 µM [falling, full curve, poor fit]
CCCn1c(SCC(=O)Nc2cccc(C(=O)OC)c2)nnc1-c1cccnc1 | 0.01 µM [falling, full curve, poor fit]
COCCNc1ncnc2ccc(-c3cccnc3)cc12 | 3.16 µM [rising, full curve]
CCOc1ccc(-c2nnc3ccc(SCc4ccc(C(=O)OC)o4)nn23)cc1 | 2 µM [rising, full curve]
Cc1cc2ncn(C(=O)c3c(-c4ccccc4)noc3C)c2cc1C | 0.0158 µM [falling, partial curve, poor fit]
COc1cc(-c2nc(Cc3c(F)cccc3Cl)no2)cc(OC)c1OC | 1 µM [rising, partial curve]
COC(=O)c1cc(OC)c(OC)cc1N=CC1=C(O)CC(C)(C)CC1=O | 6.31 µM [rising, partial curve]
O=C(Cn1nnc(-c2ccccc2)n1)c1ccccc1 | 0.316 µM [falling, full curve]
Nc1nnc(SCc2cccc(C(F)(F)F)c2)s1 | 2.51 µM [falling, partial curve, poor fit]
CCN1c2ccccc2-c2nc3ccccc3n2C1c1ccccn1 (stereo not drawn) | 12.6 µM [rising, partial curve]
CCCN(c1ccc(OCC)cc1)S(=O)(=O)c1ccc2c(c1)CCN2C(=O)CCC(=O)O | 1.26 µM [falling, partial curve]
CCn1c(SCc2nc(-c3ccc(OC)c(OC)c3)no2)nnc1-c1cccs1 | 25.1 µM [rising, single point]
CCN(Cc1ccccc1)S(=O)(=O)c1ccc(C(=O)Nc2nnc(-c3ccccc3OC)o2)cc1 | 0.00398 µM [falling, full curve]
CCOC(=O)Cc1nnc(NC(=O)c2ccccc2OC)s1 | 25.1 µM [rising, single point]
CCN(CC)CCNC(=O)CS(=O)Cc1nc(-c2ccccc2Cl)oc1C (stereo not drawn) | 0.00398 µM [falling, full curve, poor fit]
COC(=O)Nc1cc(C)nc2ccccc12 | 25.1 µM [rising, single point]
COC(=O)CSc1nnc(CSc2nc(C)cc(C)n2)n1Cc1ccco1 | 12.6 µM [rising, partial curve]
O=C(NC1CCN(C(=O)N2c3ccccc3Sc3ccccc32)CC1)c1ccco1 | 10 µM [falling, partial curve, poor fit]
Cc1cc(NC(=O)c2cc(-c3ccccn3)nc3ccccc23)no1 | 0.126 µM [rising, full curve, poor fit]

Structure (SMILES) | AC50
CCOC(=O)c1sc2nc(CC(=O)OC)nc(NCCN3CCOCC3)c2c1C | 12.6 µM [rising, single point]
COc1ccc(-c2nnc(SCc3ccccc3F)o2)cc1OC | 10 µM [rising, partial curve]
CC(C)Nc1nnc(SCC(=O)Nc2ccc(F)cc2)s1 | 0.00316 µM [falling, full curve, poor fit]
CCOC(=O)c1cnc(SCc2nc(N)nc(Nc3ccc(F)cc3)n2)nc1N | 7.94 µM [rising, partial curve]
COc1ccc(Cl)cc1NC(=O)C1CSC(c2ccncc2)=N1 (stereo not drawn) | 6.31 µM [rising, partial curve]
O=c1cc(-c2ccncc2)oc2ccccc12 | 10 µM [falling, partial curve]
CCOC(=O)C1Cc2ccccc2C(=O)O1 (stereo not drawn) | 1 µM [falling, single point]
COC(=O)c1cc(-c2ccc3c(c2)OCO3)nc2ccccc12 | 12.6 µM [rising, partial curve]
CCOC(=O)c1cnc2c(C)cccc2c1NCc1ccco1 | 10 µM [rising, partial curve]
CCOC(=O)c1ccccc1NC(=O)CC1Nc2ccccc2NC1=O (stereo not drawn) | 10 µM [rising, partial curve]
COc1ccc2oc(=O)c(C(=O)N3CCN(c4ccccc4)CC3)cc2c1 | 0.1 µM [falling, partial curve, poor fit]
CN1CCN(c2ncc3ncc(=O)n(Cc4cccs4)c3n2)CC1 | 12.6 µM [rising, partial curve]
N#Cc1cccc(-c2nc(NCCN3CCOCC3)c3ccccc3n2)c1 | 10 µM [rising, partial curve]
CSc1nnc2c3ccccc3n(CCc3ccccc3)c2n1 | 0.501 µM [rising, partial curve]
CCOC(=O)N1CCN(C(=O)CSc2nc3c(cnn3-c3ccc(C)cc3)c(=O)[nH]2)CC1 | 10 µM [rising, partial curve]
CN1CCN(c2ccc(Cl)cc2NC(=O)c2cccc(S(=O)(=O)N(C)C)c2)CC1 | 5.01 µM [rising, full curve]
c1coc(Cn2c(SCc3nc4ccccc4[nH]3)nnc2-c2cnccn2)c1 | 12.6 µM [falling, single point]
COc1ccccc1C(=O)n1nc(-c2ccco2)nc1N | 0.00794 µM [falling, full curve, poor fit]
O=C1NCN(c2ccccc2)C12CCN(CCCC(c1ccc(F)cc1)c1ccc(F)cc1)CC2 | 10 µM [falling, single point]
O=S(=O)(c1cccc(-c2cn3cccnc3n2)c1)N1CCOCC1 | 25.1 µM [rising, single point]
CN(C)C(=O)c1ccc(-c2ccc3ncnc(NC4CC4)c3c2)cc1 | 7.94 µM [rising, partial curve]
O=C1CC(Sc2nnnn2C2CCCCC2)C(=O)N1c1ccccc1 (stereo not drawn) | 1 µM [rising, partial curve]
Cn1nc(C(=O)Nc2cccnc2)c2ccccc2c1=O | 12.6 µM [rising, partial curve]

Part of the list above, in markdown.

| Structure (SMILES) | AC50 |
| --- | --- |
| CCOC(=O)N1CCN(C(=O)CSc2nc3c(cnn3-c3ccc(C)cc3)c(=O)[nH]2)CC1 | 10 µM [rising, partial curve] |
| CN1CCN(c2ccc(Cl)cc2NC(=O)c2cccc(S(=O)(=O)N(C)C)c2)CC1 | 5.01 µM [rising, full curve] |
| c1coc(Cn2c(SCc3nc4ccccc4[nH]3)nnc2-c2cnccn2)c1 | 12.6 µM [falling, single point] |

Continued:

Structure (SMILES) | AC50
O=C(c1cccc(C(=O)N2CCN(c3ccccc3F)CC2)c1)N1CCN(c2ccccc2F)CC1 | 0.316 µM [rising, partial curve, poor fit]
CC(C)(C)C(=O)OCOC(=O)[C@@H]1N2C(=O)[C@@H](NC(=O)[C@H](N)c3ccccc3)[C@H]2SC1(C)C | 10 µM [falling, partial curve, poor fit]
CCOC(=O)C1CCN(Cc2nc3ccccc3c(=O)n2-c2ccc(OCC)cc2)CC1 | 10 µM [rising, partial curve]
Cc1cc(=O)oc2cc(NC(=O)C3COc4ccccc4O3)ccc12 (stereo not drawn) | 10 µM [rising, partial curve]
O=c1c(-c2cccs2)nc2cnc(N3CCOCC3)nc2n1-c1ccccc1 | 2.51 µM [rising, full curve]
Cc1cc(Cl)ccc1OCCCC(N)=O | 25.1 µM [rising, single point]
Cn1c(CNC(=O)Nc2cccc(Cl)c2)nnc1SCc1ccccc1 | 0.0501 µM [falling, full curve, poor fit]
CCn1c2c(c3cc(Cl)ccc31)CCCC2=O | 10 µM [rising, partial curve]
CCN(CC)CCCNC(=O)c1nn(-c2ccccc2OC)c(=O)c2ccccc12 | 3.98 µM [falling, partial curve]
O=C(NCN1CCN(c2ccccc2F)CC1)c1ccccc1 | 0.251 µM [falling, full curve]
CCCn1nc(NC(=O)c2ccncc2)c2cc3ccccc3nc21 | 7.94 µM [rising, partial curve]
COC(=O)c1[nH]cnc1C(=O)c1ccccc1 | 10 µM [falling, partial curve]
CCNC(=O)c1c(O)c2ccccc2[nH]c1=O | 10 µM [rising, partial curve]
COc1ccccc1C(=O)NCCC(=O)N1CC(=O)Nc2ccccc21 | 5.01 µM [falling, single point]
O=c1c(-c2ccccc2)nc2cnc(Nc3ccccc3)nc2n1C[C@H]1CCCO1 | 1.58 µM [rising, full curve]
CCCCn1c(SCC(=O)NCCc2ccc(OC)c(OC)c2)nc2c1c(=O)n(C)c(=O)n2C | 0.398 µM [falling, partial curve]
CNC/C(Cl)=N/S(=O)(=O)c1ccc(C)cc1 | 0.1 µM [rising, single point]
O=C(O)CCSc1nc2ccccc2c(=O)[nH]1 | 2 µM [falling, partial curve]
Clc1ccccc1-c1ccc2ncnc(NCc3cccnc3)c2c1 | 12.6 µM [rising, partial curve]
COc1ccc(-n2c(=O)c(-c3cn(C)c4ccccc34)nc3cncnc32)cc1 | 10 µM [rising, partial curve]
COCCOC(=O)C1=C(C)NC(=O)NC1c1cn(-c2ccccc2)nc1-c1cccs1 (stereo not drawn) | 25.1 µM [rising, single point]
Cc1ccnc(NC(=O)COC(=O)C2COc3ccccc3O2)n1 (stereo not drawn) | 0.0794 µM [falling, full curve, poor fit]
